Measured data: PubChem BioAssay AID652243 (Drosophila RNAi Screening Center, 2013)

Purpose: 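Fly regulators of androgen-dependent reporter output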 (primary screen)
Cells: Drosophila S2R+ cells
Knock-down reagent: long dsRNA against Drosophila genes
Timing: 72 h (48 h, then 24 h hormone)
Treatment: synthetic androgen R1881 at 10 nM for 24 h
Measured: 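Per-well raw luminescence of the androgen-driven firefly reporter and of the Renilla control, two replicates each, without normalisation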
Reading the numbers: firefly reporter light: higher = more light from androgen-responsive reporter; Renilla control light: higher = more constitutive control signal (cell number, transfection)
Active means: 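Hit when the log firefly-to-Renilla ratio dropped or increased by a fixed fold versus the mean of GFP or LacZ controls across duplicate plates; lowering cut given as 1.5 and as 3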
Calls: active = hit: reporter lowered or raised; inactive = no hit
In all, the deposit lists about 24,000 reagents; below is an unselected part of those that have a named target and a result. Over the whole deposit, 246 (1%) were called active. 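Plates not normalised; calls are printed but the firefly/Renilla ratio behind them is not deposited; fold cut for lowering reported inconsistently.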 Raw values are not corrected between plates. Names joined by + are all predicted targets of the reagent. Not stated in the record: the amount of reagent.

| Gene | PubChem SID | firefly reporter light, replicate 1 | firefly reporter light, replicate 2 | Renilla control light, replicate 1 | Renilla control light, replicate 2 | call |
| --- | --- | --- | --- | --- | --- | --- |
| CG4953 | SID104182584 | 9.50e5 | 4.22e5 | 1.70e6 | 1.18e6 | inactive |
| CG6294 + CG6299 | SID104199772 | 4.52e5 | 6.13e5 | 3.45e6 | 2.78e6 | inactive |
| CG6294 + CG6299 | SID104205987 | 3.89e5 | 2.89e5 | 7.73e5 | 7.40e5 | inactive |
| CG9662 | SID104180515 | 1.37e5 | 1.07e5 | 9.40e5 | 1.14e6 | inactive |
| Sumo | SID104183403 | 1.31e6 | 1.60e6 | 1.70e6 | 1.96e6 | inactive |
| CG17264 | SID104180292 | 3.99e5 | 4.92e5 | 1.68e6 | 1.11e6 | inactive |
| CG17264 | SID104207996 | 2.91e5 | 4.46e5 | 7.96e5 | 7.96e5 | inactive |
| CG30151 | SID104185680 | 1.09e5 | 96900 | 2.14e5 | 1.83e5 | inactive |
| CG30151 | SID104203380 | 9.42e5 | 9.89e5 | 8.45e5 | 7.19e5 | inactive |
| CG33159 | SID104187991 | 4.21e5 | 5.44e5 | 3.44e6 | 4.27e6 | inactive |
| CG6216 | SID104190398 | 2.58e5 | 2.36e5 | 2.84e6 | 2.65e6 | inactive |
| CG6216 | SID104206896 | 2.84e5 | 5.36e5 | 1.04e6 | 1.17e6 | inactive |
| CG14615 | SID104200419 | 49579 | 98914 | 2.14e5 | 1.37e5 | inactive |
| Creld | SID104180100 | 63900 | 51643 | 5.43e5 | 4.28e5 | inactive |
| Creld | SID104207882 | 3.80e5 | 4.66e5 | 1.21e6 | 1.21e6 | inactive |
| CG32371 | SID104201745 | 5.92e5 | 5.28e5 | 2.04e6 | 1.78e6 | inactive |
| CG32371 | SID104204593 | 2.87e5 | 1.93e5 | 7.59e5 | 8.41e5 | inactive |
| CG34461 | SID104190559 | 2.65e5 | 2.40e5 | 3.26e6 | 2.19e6 | inactive |
| CG6126 | SID104195763 | 68554 | 76467 | 3.30e5 | 5.19e5 | inactive |
| CG32391 | SID104188657 | 89379 | 1.19e5 | 3.65e5 | 4.39e5 | inactive |
| RpL24-like | SID104195903 | 1.01e5 | 1.47e5 | 2.28e6 | 2.30e6 | inactive |
| LBR | SID104184090 | 6.17e5 | 6.17e5 | 3.02e6 | 2.90e6 | inactive |
| LBR | SID104208006 | 9.46e5 | 1.09e6 | 1.45e6 | 1.45e6 | inactive |
| BicD | SID104181798 | 1.36e6 | 1.44e6 | 1.57e6 | 1.72e6 | inactive |
| GstE11 | SID104186718 | 6.58e5 | 4.30e5 | 9.86e5 | 8.47e5 | inactive |
| mldr | SID104197892 | 3.26e5 | 3.68e5 | 2.06e6 | 2.01e6 | inactive |
| mldr | SID104206534 | 6.59e5 | 5.51e5 | 1.75e6 | 1.65e6 | inactive |
| CG17807 | SID104184088 | 6.59e5 | 4.85e5 | 1.48e6 | 1.54e6 | inactive |
| CG17807 | SID104204932 | 2.85e5 | 2.14e5 | 6.44e5 | 5.72e5 | inactive |
| CG5402 | SID104195584 | 3.24e5 | 2.56e5 | 2.37e6 | 2.37e6 | inactive |
| CG5402 | SID104204817 | 4.26e5 | 4.56e5 | 1.06e6 | 1.12e6 | inactive |
| CG13299 | SID104189765 | 1.85e5 | 1.79e5 | 2.02e6 | 2.95e6 | inactive |

Part of the list above, set out differently.
Gene,PubChem SID,"firefly reporter light, replicate 1","firefly reporter light, replicate 2","Renilla control light, replicate 1","Renilla control light, replicate 2",call
CG17807,SID104184088,6.59e5,4.85e5,1.48e6,1.54e6,inactive
CG17807,SID104204932,2.85e5,2.14e5,6.44e5,5.72e5,inactive
CG5402,SID104195584,3.24e5,2.56e5,2.37e6,2.37e6,inactive
CG5402,SID104204817,4.26e5,4.56e5,1.06e6,1.12e6,inactive
CG13299,SID104189765,1.85e5,1.79e5,2.02e6,2.95e6,inactive

The listing continues.
| Gene | PubChem SID | firefly reporter light, replicate 1 | firefly reporter light, replicate 2 | Renilla control light, replicate 1 | Renilla control light, replicate 2 | call |
| --- | --- | --- | --- | --- | --- | --- |
| ttm50 | SID104198379 | 1.15e5 | 1.02e5 | 9.79e5 | 7.77e5 | inactive |
| inaC | SID104187424 | 1.17e6 | 1.02e6 | 2.19e6 | 1.75e6 | inactive |
| inaC | SID104214221 | – | – | – | – | inactive |
| inaC | SID104214222 | – | – | – | – | inactive |
| CG13124 | SID104182012 | 1.33e6 | 1.31e6 | 2.35e6 | 2.72e6 | inactive |
| CG13124 | SID104205872 | 2.36e5 | 2.78e5 | 7.48e5 | 8.44e5 | inactive |
| Trmt112 | SID104191477 | 3.72e5 | 3.44e5 | 3.50e6 | 3.58e6 | inactive |
| ida | SID104187955 | 1.48e5 | 1.01e5 | 9.50e5 | 1.02e6 | inactive |
| CG11350 | SID104187973 | 4.09e5 | 3.09e5 | 2.33e6 | 1.72e6 | inactive |
| CG11350 | SID104203629 | 1.03e6 | 1.08e6 | 8.32e5 | 7.50e5 | inactive |
| CG6277 | SID104195800 | 1.37e5 | 1.57e5 | 2.61e6 | 2.95e6 | inactive |
| CG6277 | SID104203696 | 1.41e6 | 1.22e6 | 7.63e5 | 7.41e5 | inactive |
| Cmpk | SID104196435 | 1.02e5 | 1.04e5 | 8.73e5 | 8.55e5 | inactive |
| Cmpk | SID104214375 | – | – | – | – | inactive |
| AttB | SID104186526 | 26844 | 88328 | 7.71e5 | 7.71e5 | inactive |
| AttB | SID104207541 | 4.89e5 | 4.17e5 | 1.18e6 | 8.78e5 | inactive |
| Lcp65APsi | SID104188587 | 1.31e5 | 1.52e5 | 1.34e5 | 1.25e5 | inactive |
| Lcp65APsi | SID104190134 | 2.39e5 | 2.46e5 | 2.19e6 | 2.62e6 | inactive |
| Pka-R2 | SID104187301 | 4.35e5 | 3.52e5 | 2.40e6 | 2.47e6 | inactive |
| Pka-R2 | SID104207758 | 1.03e6 | 1.14e6 | 1.49e6 | 1.37e6 | inactive |
| CG31462 (retired record) | SID104194151 | 38048 | 56338 | 1.43e6 | 1.53e6 | inactive |
| Sym | SID104192093 | 53230 | 31752 | 4.40e5 | 4.33e5 | inactive |
| Sym | SID104207799 | 4.64e5 | 5.23e5 | 1.16e6 | 1.18e6 | inactive |
| CG30031 + deltaTry + CG30025 + 1 more | SID104201054 | 1.42e5 | 80698 | 4.96e5 | 4.48e5 | inactive |
| CG9014 | SID104181771 | 3.10e5 | 2.41e5 | 2.34e6 | 2.30e6 | inactive |
| ATPCL | SID104185705 | 55394 | 1.26e5 | 1.56e6 | 1.56e6 | inactive |
| ATPCL | SID104206353 | 2.39e5 | 2.78e5 | 2.94e5 | 7.47e5 | inactive |
